From PubChem BioAssay AID1259415 (National Center for Advancing Translational Sciences (NCATS), 2018)
In all, about 410,000 compounds went through this assay and about 18,000 (4.4%) were called active. The shares of active, inactive and inconclusive entries below differ from those in the screen. No stated cut-off is given here; in the data, active means activity change below about -60%; inconclusive means no clear call, values can overlap the other calls; inactive means above about -39%.

assay: qHTS Assay for inhibitors of the human cytomegalovirus (HCMV); details: HFF cells, HCMV-luciferase reporter, 72 h; at 57.5 µM; stronger effect = lower value
From the text: NCGC Assay Overview: Infection with human cytomegalovirus (HCMV) continues to pose significant threats for pregnant women and immunocompromised hosts. HCMV causes serious morbidity and mortality in transplant recipients, and congenital HCMV is the leading infectious cause of mental retardation and deafness in children. In the 1990s, the annual costs associated with the disease burden of congenital CMV were estimated at around $2 billion. A HCMV vaccine is not available yet and HCMV therapies result in intolerable side effects and emergence of drug resistant viruses. […] Towards this goal we have developed and characterized a luciferase HCMV reporter that was initially used in 96 well plates and then optimized to 1536-well plates for utilization in screening of the MLSMR collection, the NGCG diversity collection and the NCGC Pharmaceutical Collection of approved and investigational drugs.
NCGC Assay Protocol Summary:
This is a cell-based assay for HCMV inhibition in HFFs cells. The screening used 2 compound doses and the HCMV-luciferase at MOI of 1 PFU/cell. Cells were treated and infected with HCMV. At 72 h post infection cell lysates were collected and luciferase activity was determined using the Glomax-Multi + Detection System (Promega, Madison, WI). Data were normalized to the controls for basal activity (buffer only) and known HCMV inhibitors Salinmoycin.
1536-well assay protocol for the assay:
(1) Add 3 ul CMV/HFF cell culture. 1000 cells/well in DMEM nirmal media.
(2) Incubate 16 hr at 37C.
(3) Add 23 nl control compound, 10uM of Salinomycin.
(4) Add 23 nl compounds in DMSO solution.
(5) Add 3 ul CMV suspension. Final 1 puf/ul, Virus stock 2000pfu/ul
(6) Incubate 72 hrs at 37C.
(7) Add 4 ul OneGlo Luc Reagent.
(8) Incubate 5 min at room temperature.
On the % scale 0 is the no-effect control and ±100 the full control effect.

Structure (SMILES) | activity change, negative = inhibition
COC(=O)c1c(Oc2nc(OC)cc(OC)n2)cccc1Oc1nc(OC)cc(OC)n1 | inconclusive: -40.7%
O=C(Nc1ccc(Cl)cc1)/C(=C/c1cccc(O)c1)c1nc2ccccc2s1 | active: -97.9%
CNC(=S)N1CCN(c2nc(-c3ccc(Cl)cc3)cs2)CC1 | inconclusive: -58.3%
CCCCC[C@H](C)N1C[C@@H](COCc2ccccc2)Oc2cc(N3CC[C@H](N(C)C)C3)ccc2S1(=O)=O | inconclusive: -51.3%
CC1=C(C(=O)OC2CCCCC2)C(c2ccccc2Br)NC(=O)N1 (centres undefined) | inconclusive: -54.3%
Cc1ccc2c(c1)N(CC(=O)N1CCCCC1C)C(=O)CO2 (centres undefined) | inconclusive: -52.5%
O=S(=O)(Nc1cccc2cccnc12)c1ccc(S(=O)(=O)N2CCCC2)cc1 | active: -85.9%
COc1ccc(NC(=O)CCCC(=O)NCCc2ccc(OC)c(OC)c2)cc1 | inactive: 7.07%
CCN(C(=O)CCN1C(=O)S/C(=C\c2ccccc2)C1=O)C1CCS(=O)(=O)C1 (centres undefined) | inconclusive: -54.3%
O=C(c1ccc(Br)c([N+](=O)[O-])c1)N1CCN(Cc2ccccc2)CC1 | inactive: 14.9%
CSc1ccc(NC(=O)N2CCC(C(=O)c3ccc(F)cc3)CC2)cc1 | inconclusive: -40.4%
COc1cccc(C(=O)Nc2ccc(-n3nncc3-c3ccccc3)cc2)c1 | inconclusive: 0%
CCn1c(N2CCN(S(=O)(=O)c3ccc(Cl)cc3)CC2)nc2ccccc21 | inconclusive: -56.4%
Cc1ccc(C)c(-c2nnc(NC(=O)c3ccc4c(c3)OCCO4)o2)c1 | inconclusive: -43.2%
COC(=O)c1ccc(N2CCN(C)CC2)c(NC(=O)c2sc3ccccc3c2Cl)c1 | active: -98.4%
Cc1cc(C)cc(NC(=O)C(OC(=O)c2cccs2)c2ccccc2)c1 (centres undefined) | inactive: -16.7%
CC(N)C(=O)c1ccco1 (centres undefined) | active: -68.4%
COc1ccc(-c2[nH]c(-c3ccccc3)nc2SCC(=O)Nc2ccc3c(c2)OCCO3)cc1 | inconclusive: -45.7%
COc1ccc(OC)c(S(=O)(=O)N(C)CC(=O)N2CCOCC2)c1 | inconclusive: -40.7%
Oc1ccc(C[C@H]2CNC(=S)N2C[C@H]2CCCN2C[C@H](Cc2ccccc2)N2C[C@H](Cc3ccc(O)cc3)N(CCc3ccccc3)C2=S)cc1 | inconclusive: -40.5%
CCOc1ccc(NC(=O)c2cnn(-c3ccc(C)c(Cl)c3)c2C2CCNCC2)cc1 | inactive: -39.9%
CSc1ncccc1C(=O)NC1CC(C)(C)Cc2c1cnn2-c1ccccc1C (centres undefined) | inconclusive: -55.6%
CN(C)c1ccc(C(=S)N2CCN(S(=O)(=O)c3ccccc3)CC2)cc1 | inconclusive: 0%
Cn1c(Cl)c(/C=N/OC(=O)C2CC2)c2ccccc21 | inconclusive: -44.1%
O=c1[nH]c(C2CCN(S(=O)(=O)c3ccc(S(=O)(=O)NC4CC4)cc3)CC2)nc2c1nnn2Cc1ccccc1 | inconclusive: -40.1%
Cc1cccn2c(=O)c(C=O)c(N3CCC4(CC3)OCCO4)nc12 | inconclusive: -42.2%
CCOC(=O)CN(c1sc(C)c(C)c1C(=O)OCC)S(=O)(=O)c1ccc(C)cc1 | active: -65.2%

Structure (SMILES) | activity change, negative = inhibition
Cc1ccc(CN2COc3cc(C)c4c(oc(=O)c5ccccc54)c3C2)cc1 | inactive: 8.87%
CN1CCN(CCCNC(=O)Cn2c(-c3cccs3)cc3cc(Cl)ccc32)CC1 | active: -69.1%
O=C(C(=O)N1CCN(C(=O)c2ccco2)CC1)c1ccccc1 | inactive: 15.4%
C=CCN1CC(O)=C(c2nc3ccccc3[nH]2)C1=N | inconclusive: -45%
COCC(C)NC(=O)c1cnn2c(C(F)F)cc(-c3ccccc3)nc12 (centres undefined) | inconclusive: -54.3%
CN(C(=O)Cn1cc(S(=O)(=O)N2CCN(c3ccccc3F)CC2)c2ccccc2c1=O)c1ccc(Cl)cc1 | inconclusive: -41.9%
COc1ccc(C=C2CCC3C(=O)CCCC3(C)C2=O)cc1 (centres undefined) | inconclusive: -41.3%
O=C(NN=C(Cc1ccccc1)Cc1ccccc1)c1ccccc1F | inconclusive: -49%
Cc1nc2cc(N3CCN(C)CC3)c(NC(=O)Cc3ccccc3)cc2c(=O)n1Cc1ccccc1 | inconclusive: -56.8%
Cc1ccc(CNC(=O)Nc2cn(CC(C)C)c(=O)c3ccccc23)cc1 | inactive: 14.7%
S=C(Nc1ccccc1)c1nc2ccccc2s1 | inconclusive: -56.2%
CCCCN1C(=O)/C(=C(/C#N)C(=O)N2CCCC2)c2ccccc21 | inconclusive: 0%
COc1cc(C(=O)NN=Cc2ccc(N(C)C)cc2)cc(OC)c1OC | active: -66.3%
Cc1ccc2nc3c(c(C(=O)OCC(=O)NC4CCS(=O)(=O)C4)c2c1)CCCC3 (centres undefined) | inactive: 39.4%
O=C(NCC1CCCO1)c1ccccc1 (centres undefined) | inactive: -33.6%
CC(C)(C)c1csc(Sc2ccc([N+](=O)[O-])cn2)n1 | inconclusive: -41.2%
CCN(CC(=O)NCc1cccs1)C(=O)CCC(=O)c1ccc(F)cc1 | inactive: -16.4%
COc1ccc(-c2cc3nc(C)c(CCC(=O)Nc4cccc(C(F)(F)F)c4)c(C)n3n2)c(OC)c1 | inconclusive: -47.7%
COc1ccc2[nH]c(=O)c(CN(Cc3ccco3)C(c3nnnn3Cc3ccccc3)C(C)C)cc2c1 (centres undefined) | active: -98.5%
CCOC(=O)/C=C1/SCC(=O)N1CC(=O)Nc1cccc(F)c1 | inconclusive: -43.8%
Cc1cc(=O)[nH]c(N/N=C/c2c(C)nn(-c3ccc(F)cc3)c2Cl)n1 | inconclusive: -54.2%
O=C(Nc1nnc(C(F)(F)F)s1)c1cccnc1 | inactive: 73.7%
COc1ccc(S(=O)(=O)N2CCCc3ccccc32)cc1[N+](=O)[O-] | inconclusive: -43.1%
COC(=O)/C(C#N)=C/c1c[nH]c2ccccc12 | inactive: 68%
O=c1cc(NS(=O)(=O)c2ccccc2)nc(SCc2c(Cl)cccc2Cl)[nH]1 | inconclusive: -50.2%
COc1ccc(OC)c(NC(=O)NCCc2cccc(Cl)c2)c1 | inconclusive: -51.5%
COc1cc(/C=C2/SC(=S)N(Cc3ccccc3)C2=O)cc(OC)c1O | active: -63.1%

As entered above.
activity change, negative = inhibition with CCOC(=O)/C=C1/SCC(=O)N1CC(=O)Nc1cccc(F)c1 is entered as inconclusive: -43.8%
activity change, negative = inhibition with O=c1cc(NS(=O)(=O)c2ccccc2)nc(SCc2c(Cl)cccc2Cl)[nH]1 is entered as inconclusive: -50.2%
